Data taken from US20140206842 (published 2014).

Test: general procedure: solution-phase peptide synthesis
Details: for conjugation yield: conjugation step; for step yield: late stage modification step

Substance	conjugation yield [%]	step yield [%]
3-Acetyl-11-Keto-β-Boswellic acid-Lys (Z)-Thr (Bzl)-Thr (Bzl)-Lys (Z)-Ser (Bzl)-OBzl	74	–
Acetyl-keto-β-boswellyl-Lys-Thr-Thr-Lys-Ser-OH	–	90
Acetyloleanoyl Lys (Z)-Thr (Bzl)-Thr (Bzl)-Lys (Z)-Ser (Bzl)-OBzl	80	–
Acetyloleanoyl-Lys-Thr-Thr-Lys-Ser-OH	–	90
Acetylursolyl-Lys (Z)-Thr (Bzl)-Thr (Bzl)-Lys (Z)-Ser (Bzl)-OBzl	80	–
Acetylursolyl-Lys-Thr-Thr-Lys-Ser-OH	–	90
Keto-β-boswellyl-Lys-Thr-Thr-Lys-Ser-OH	–	85
Oleanoyl-Lys-Thr-Thr-Lys-Ser-OH	–	85
Urosoyl-Lys-Thr-Thr-Lys-Ser-OH	–	85
